The results in this text go back to paper PMC11571712.

The chains behind the UniProt entries cited, without tags or fusion partners.
UniProt P01106: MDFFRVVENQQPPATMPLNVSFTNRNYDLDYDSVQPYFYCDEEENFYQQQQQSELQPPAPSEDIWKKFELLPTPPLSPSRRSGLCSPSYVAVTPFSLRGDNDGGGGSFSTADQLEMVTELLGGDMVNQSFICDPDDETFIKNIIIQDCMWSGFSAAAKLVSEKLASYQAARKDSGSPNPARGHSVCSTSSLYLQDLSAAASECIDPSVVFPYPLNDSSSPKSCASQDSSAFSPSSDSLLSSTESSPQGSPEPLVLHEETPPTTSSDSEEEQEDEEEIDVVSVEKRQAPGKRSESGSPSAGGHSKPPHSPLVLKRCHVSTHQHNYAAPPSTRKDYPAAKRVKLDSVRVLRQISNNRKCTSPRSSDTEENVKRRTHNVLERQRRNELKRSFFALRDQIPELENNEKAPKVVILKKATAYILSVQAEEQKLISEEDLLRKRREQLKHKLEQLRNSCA
UniProt Q9BXK1: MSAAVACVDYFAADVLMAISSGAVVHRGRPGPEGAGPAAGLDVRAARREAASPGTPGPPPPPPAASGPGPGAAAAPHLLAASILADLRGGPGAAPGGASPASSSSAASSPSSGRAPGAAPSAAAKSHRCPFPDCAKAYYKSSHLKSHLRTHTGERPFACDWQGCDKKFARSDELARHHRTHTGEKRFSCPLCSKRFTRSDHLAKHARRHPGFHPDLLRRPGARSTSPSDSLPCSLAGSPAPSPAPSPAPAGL

Results are given in words; binding and its absence hold for the method and conditions named. In cells and extracts the contact can be indirect. Some entries that bind do so weakly or less than the wild type.

Assay [1] has as its target c-Myc (MYC), endogenous (human (endogenous in UM-UC-3 and T24)) (UniProt P01106). Nature of the assay: co-IP; endogenous proteins; UM-UC-3 and T24 lysates in RIPA buffer (50 mM Tris-HCl pH 8.0, 150 mM NaCl, 0.5% NP-40, 5 mM EDTA); anti-MYC antibody or anti-IgG overnight at 4 °C, then protein A/G agarose beads 4 h at 4 °C; Western blotting. On the technique in general: A western blot detects proteins with antibodies after separation by electrophoresis.

For assay [2], the target named is KLF16, transfected in HEK293T cells for the co-IP with SFB-MYC truncations (human) (UniProt Q9BXK1). Nature of the assay: co-IP; HEK293T cells co-transfected with the indicated plasmids (SFB-MYC truncations); immunoprecipitation with anti-HA beads, Western blotting.

“Krüppel-like factor 16 (KLF16), endogenous (from UniProt Q9BXK1 1-252)”: in assay [1], the binding entry is “binds”.

In the case of SFB-MYC (from UniProt P01106 1-454), in assay [2], the binding result is recorded as “binds”.
